Test results: publication PMC8941131
Results are given in words; binding and its absence hold for the method and conditions named. Binding seen in cells or lysates may run through a third protein. Some results given as binding are weak or reduced against the parent protein; the word gives no strength. Where a sequence is shown, tags or fusion partners need not be part of it.

By UniProt entry, the sequences of proteins in these tests, tags left out.
UniProt Q9Y243: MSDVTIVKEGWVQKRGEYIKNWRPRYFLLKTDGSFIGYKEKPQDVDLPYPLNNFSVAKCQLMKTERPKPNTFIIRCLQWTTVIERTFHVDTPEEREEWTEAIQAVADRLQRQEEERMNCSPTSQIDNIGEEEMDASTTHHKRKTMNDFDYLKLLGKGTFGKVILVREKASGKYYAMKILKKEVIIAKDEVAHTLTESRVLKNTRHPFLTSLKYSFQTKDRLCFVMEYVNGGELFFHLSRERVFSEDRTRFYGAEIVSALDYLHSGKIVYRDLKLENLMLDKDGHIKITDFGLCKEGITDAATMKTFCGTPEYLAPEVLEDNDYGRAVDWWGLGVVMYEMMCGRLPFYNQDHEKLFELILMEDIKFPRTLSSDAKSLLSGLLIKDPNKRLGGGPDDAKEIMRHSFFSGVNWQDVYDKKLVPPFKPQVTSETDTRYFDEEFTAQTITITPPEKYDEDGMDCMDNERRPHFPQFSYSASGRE
UniProt P31751: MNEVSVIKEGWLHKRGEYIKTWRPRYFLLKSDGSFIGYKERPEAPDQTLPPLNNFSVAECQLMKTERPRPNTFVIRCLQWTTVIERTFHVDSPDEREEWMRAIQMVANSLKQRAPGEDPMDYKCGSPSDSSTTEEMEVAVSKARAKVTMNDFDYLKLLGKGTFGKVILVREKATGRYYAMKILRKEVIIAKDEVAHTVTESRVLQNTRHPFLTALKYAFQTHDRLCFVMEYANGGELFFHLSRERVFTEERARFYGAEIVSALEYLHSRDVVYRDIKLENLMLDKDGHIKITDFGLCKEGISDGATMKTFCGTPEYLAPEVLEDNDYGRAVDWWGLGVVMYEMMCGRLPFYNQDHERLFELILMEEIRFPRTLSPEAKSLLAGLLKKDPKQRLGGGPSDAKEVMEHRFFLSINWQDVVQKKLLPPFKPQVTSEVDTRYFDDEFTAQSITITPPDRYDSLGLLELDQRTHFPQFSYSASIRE
UniProt P23443: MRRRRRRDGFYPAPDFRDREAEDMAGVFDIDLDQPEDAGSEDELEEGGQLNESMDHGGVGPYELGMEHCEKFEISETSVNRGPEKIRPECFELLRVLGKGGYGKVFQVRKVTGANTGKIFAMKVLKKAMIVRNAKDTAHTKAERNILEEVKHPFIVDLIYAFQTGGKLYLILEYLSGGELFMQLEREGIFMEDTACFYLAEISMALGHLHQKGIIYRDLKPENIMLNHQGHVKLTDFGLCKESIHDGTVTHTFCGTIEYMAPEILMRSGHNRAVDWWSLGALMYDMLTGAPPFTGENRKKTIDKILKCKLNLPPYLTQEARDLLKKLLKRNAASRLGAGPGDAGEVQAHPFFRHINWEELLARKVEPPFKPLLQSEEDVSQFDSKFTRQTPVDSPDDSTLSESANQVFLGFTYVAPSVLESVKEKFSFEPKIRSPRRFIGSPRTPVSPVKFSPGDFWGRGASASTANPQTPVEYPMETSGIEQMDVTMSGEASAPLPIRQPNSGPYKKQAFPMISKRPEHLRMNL

Experiments:
Assay in all cases: co-IP; immunoprecipitation (anti-Flag or anti-HA agarose, 2-4 h at 4 °C) from whole cell lysates of co-transfected 293T cells; EBC lysis buffer, four washes with NETN buffer, immunoblot; in some panels with HA-S6K1-R3A or knock-down of 14-3-3γ
[1] = target: T1, Flag-PDK1 (3-phosphoinositide-dependent protein kinase 1, wild type) (UniProt O15530)
T1 sequence: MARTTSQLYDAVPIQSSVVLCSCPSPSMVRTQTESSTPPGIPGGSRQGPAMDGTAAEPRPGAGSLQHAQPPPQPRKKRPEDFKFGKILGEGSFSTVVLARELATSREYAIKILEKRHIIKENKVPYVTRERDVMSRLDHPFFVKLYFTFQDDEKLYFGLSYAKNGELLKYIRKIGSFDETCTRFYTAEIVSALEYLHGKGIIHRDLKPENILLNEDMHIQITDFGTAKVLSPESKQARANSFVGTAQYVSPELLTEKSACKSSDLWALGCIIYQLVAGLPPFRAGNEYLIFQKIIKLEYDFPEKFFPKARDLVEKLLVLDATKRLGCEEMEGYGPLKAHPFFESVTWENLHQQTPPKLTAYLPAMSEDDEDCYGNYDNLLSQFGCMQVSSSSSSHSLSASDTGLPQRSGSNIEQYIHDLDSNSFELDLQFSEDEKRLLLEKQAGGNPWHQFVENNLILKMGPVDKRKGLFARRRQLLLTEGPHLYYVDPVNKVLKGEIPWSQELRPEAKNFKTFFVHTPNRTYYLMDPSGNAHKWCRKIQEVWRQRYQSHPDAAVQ

[2] = target: T2, Flag-PDK1-S549A (UniProt O15530)
T2 sequence: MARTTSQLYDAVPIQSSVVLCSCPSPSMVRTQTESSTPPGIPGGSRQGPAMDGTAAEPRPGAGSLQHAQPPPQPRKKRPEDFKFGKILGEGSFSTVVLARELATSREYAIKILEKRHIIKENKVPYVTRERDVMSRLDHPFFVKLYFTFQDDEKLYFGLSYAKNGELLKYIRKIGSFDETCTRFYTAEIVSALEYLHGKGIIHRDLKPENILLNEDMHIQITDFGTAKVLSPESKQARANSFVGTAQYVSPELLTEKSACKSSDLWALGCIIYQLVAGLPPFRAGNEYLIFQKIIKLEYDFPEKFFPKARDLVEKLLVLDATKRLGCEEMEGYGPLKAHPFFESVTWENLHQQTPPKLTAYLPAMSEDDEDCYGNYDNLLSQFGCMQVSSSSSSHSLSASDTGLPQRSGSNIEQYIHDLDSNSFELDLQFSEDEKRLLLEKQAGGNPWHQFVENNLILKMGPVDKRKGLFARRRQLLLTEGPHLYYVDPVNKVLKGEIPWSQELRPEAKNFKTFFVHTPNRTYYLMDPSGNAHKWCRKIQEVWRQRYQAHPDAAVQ

[3] = target: T3, Flag-PDK1-S549D (UniProt O15530)
T3 sequence: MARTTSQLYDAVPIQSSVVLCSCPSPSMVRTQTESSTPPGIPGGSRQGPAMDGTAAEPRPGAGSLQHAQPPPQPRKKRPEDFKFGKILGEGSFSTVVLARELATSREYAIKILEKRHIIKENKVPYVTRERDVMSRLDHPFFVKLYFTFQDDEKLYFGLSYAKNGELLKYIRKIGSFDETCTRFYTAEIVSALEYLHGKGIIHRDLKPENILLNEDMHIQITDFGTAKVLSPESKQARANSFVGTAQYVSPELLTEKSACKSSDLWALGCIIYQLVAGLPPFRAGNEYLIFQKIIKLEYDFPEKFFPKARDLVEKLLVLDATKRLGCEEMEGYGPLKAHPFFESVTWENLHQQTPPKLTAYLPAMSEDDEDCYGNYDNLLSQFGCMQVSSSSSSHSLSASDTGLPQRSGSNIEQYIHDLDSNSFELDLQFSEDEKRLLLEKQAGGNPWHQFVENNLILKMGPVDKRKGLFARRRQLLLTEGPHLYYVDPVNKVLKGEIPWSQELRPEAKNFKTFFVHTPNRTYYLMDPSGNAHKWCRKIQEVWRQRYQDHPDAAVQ

binding [1] | binding [2] | binding [3] | Substance
binds | binds | binds | Myc-PLK1 (from UniProt P53350 1-603) (enzyme)
binds | binds | binds | HA-AKT3 (from UniProt Q9Y243 1-479) (enzyme)
binds | binds | binds | HA-AKT2 (from UniProt P31751 1-481) (enzyme)
binds | binds | binds | HA-S6K1 (from UniProt P23443 1-525) (enzyme)
